US20260224762A1, “RADIONUCLIDE LABELLED PEPTIDE CONJUGATE FOR SITE-SPECIFIC UPAR-TARGETING” (CURASIGHT A/S, priority 2023, published 2026)
pKd: −log10 of the molar value. For at least one compound, name, drawing or mass did not settle the structure.

By UniProt entry, the sequences of proteins in these tests, tags left out. Residues count along the entry.
UniProt Q03405, 23-305: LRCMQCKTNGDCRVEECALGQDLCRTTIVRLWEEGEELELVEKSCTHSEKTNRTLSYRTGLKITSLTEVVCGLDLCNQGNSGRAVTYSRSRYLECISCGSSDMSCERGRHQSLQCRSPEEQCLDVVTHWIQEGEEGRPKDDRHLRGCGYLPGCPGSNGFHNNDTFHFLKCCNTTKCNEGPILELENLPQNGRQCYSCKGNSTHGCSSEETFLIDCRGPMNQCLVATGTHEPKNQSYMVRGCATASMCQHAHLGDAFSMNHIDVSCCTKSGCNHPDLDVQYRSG

What was measured:
[1] = test system: glioblastoma xenograft tumors (U87.MG); test: 225Ac-DOTA-AE105 induced apoptosis in glioblastoma xenograft (caspase-3 immunohistochemistry); set-up: species or system mice; conditions: single dose 30 KBq, ex vivo analysis at day 10
uPAR expressing tumor = test: Binding specificity: blocking of 67Cu-DOTA-AE105 tumor uptake with excess unlabeled AE105 (SPECT/CT); type: in vivo, mice; conditions: 1000x excess unlabeled AE105 before 18 MBq; SPECT/CT 2 hours after injection
[2] = test system: subcutaneous U87 MG tumors; type: in vivo, female NMRI nude mice; conditions: study day 17; groups B (30 MBq) p<0.03, C (30 MBq day 0 + day 14) p=0.02, D (60 MBq) p<0.0001
subcutaneous HT29 tumors = test: Therapeutic effect of 67Cu-DOTA-AE105 in colorectal cancer xenograft (flow cytometry, immunohistochemistry); type: in vivo, female NMRI nude mice; conditions: 60 MBq
uPAR = uPAR (Homo sapiens, UniProt Q03405); test: uPAR binding by Surface Plasmon Resonance (SPR); conditions: 18 degrees Celsius, HEPES pH 7.4; read-out: SPR K(D)
Experimental: Characterization of the binding properties of lead (Pb) labelled DOTA-AE105 to its target i.e. uPAR was measured by Surface Plasmon Resonance (SPR) and expressed as the binding constant (KD), which is a measure of affinity of the conjugate towards its target.
Characterizing the interaction between a target protein (in this case uPAR) and a ligand by SPR is a well-known method for the skilled person.
The target protein uPAR was captured, via a protein tag, onto a sensor chip and the test compound (Pb2+-DOTA-AE105 and Cu2+-DOTA-AE105 respectively) were dissolved in running buffer (10 mM HEPES buffer at pH 7.4, 150 mM NaCl, […]+0.05% Tween-20) and prepared in 5-point concentration series with three-fold dilution with top concentration around 500 nM of the test compound. The assay was conducted at 18 degrees Celsius.

Structure (SMILES): CC(C)C[C@H](NC(=O)[C@H](Cc1ccc(O)cc1)NC(=O)C(CCCNC(=N)N)NC(=O)C(CO)NC(=O)C(Cc1ccccc1)NC(=O)[C@H](CC1CCCCC1)NC(=O)[C@H](CC(=O)O)NC(=O)CN1CCN(CC(=O)O)CCN(CC(=O)O)CCN(CC(=O)O)CC1)C(=O)N[C@@H](Cc1c[nH]c2ccccc12)C(=O)N[C@@H](CO)C(N)=O (single isomer, unassigned) [225Ac-DOTA-AE105, metal not drawn]
- Apoptosis (caspase-3 staining) [1]: induction of apoptosis

Structure (SMILES): CC(C)C[C@H](NC(=O)[C@H](Cc1ccc(O)cc1)NC(=O)C(CCCNC(=N)N)NC(=O)C(CO)NC(=O)C(Cc1ccccc1)NC(=O)[C@H](CC1CCCCC1)NC(=O)[C@H](CC(=O)O)NC(=O)CN1CCN(CC(=O)O)CCN(CC(=O)O)CCN(CC(=O)O)CC1)C(=O)N[C@@H](Cc1c[nH]c2ccccc12)C(=O)N[C@@H](CO)C(N)=O (single isomer, unassigned) [67Cu-DOTA-AE105, metal not drawn]
- Blocking of tumor uptake (uPAR expressing tumor): > 50%
- Tumor volume compared to vehicle control group [2]: significantly smaller tumor volumes
- Apoptosis and DNA double strand breaks (immunohistochemistry) (subcutaneous HT29 tumors; HT29 tumor tissue, FIG. 9): induce apoptosis as well as DNA double strand breaks
- uPAR positive cancer cells in xenograft tumors (flow cytometry) (subcutaneous HT29 tumors; over a 10 day period after treatment): diminishing

Structure (SMILES): CC(C)C[C@H](NC(=O)[C@H](Cc1ccc(O)cc1)NC(=O)[C@@H](CCCNC(=N)N)NC(=O)[C@@H](CO)NC(=O)[C@H](Cc1ccccc1)NC(=O)[C@H](CC1CCCCC1)NC(=O)[C@@H](CC(=O)O)NC(=O)CN1CCN(CC(=O)O)CCN(CC(=O)O)CCN(CC(=O)O)CC1)C(=O)N[C@@H](Cc1c[nH]c2ccccc12)C(=O)N[C@@H](CO)C(N)=O [Cu2+-DOTA-AE105]
- pKd (uPAR): 6.74
